Experimental data taken from the supplement of paper PMC10060354, “Discovery of a small molecule ligand of FRS2 that inhibits invasion and tumor growth” (Cellular Oncology, 2022).

Chains of the proteins cited; added tags and fusions are not shown. Lines headed by an entry give the natural chain unless they say otherwise; changes in a name come on top.
UniProt Q7L5N1: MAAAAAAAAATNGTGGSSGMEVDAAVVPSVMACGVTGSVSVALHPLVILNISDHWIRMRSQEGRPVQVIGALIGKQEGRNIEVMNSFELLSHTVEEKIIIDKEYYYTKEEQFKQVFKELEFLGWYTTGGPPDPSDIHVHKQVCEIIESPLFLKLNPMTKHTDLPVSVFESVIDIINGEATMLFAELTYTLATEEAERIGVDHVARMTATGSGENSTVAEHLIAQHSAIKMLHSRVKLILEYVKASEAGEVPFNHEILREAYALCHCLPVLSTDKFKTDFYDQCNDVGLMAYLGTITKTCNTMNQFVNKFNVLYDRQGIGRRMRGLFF
UniProt Q92636: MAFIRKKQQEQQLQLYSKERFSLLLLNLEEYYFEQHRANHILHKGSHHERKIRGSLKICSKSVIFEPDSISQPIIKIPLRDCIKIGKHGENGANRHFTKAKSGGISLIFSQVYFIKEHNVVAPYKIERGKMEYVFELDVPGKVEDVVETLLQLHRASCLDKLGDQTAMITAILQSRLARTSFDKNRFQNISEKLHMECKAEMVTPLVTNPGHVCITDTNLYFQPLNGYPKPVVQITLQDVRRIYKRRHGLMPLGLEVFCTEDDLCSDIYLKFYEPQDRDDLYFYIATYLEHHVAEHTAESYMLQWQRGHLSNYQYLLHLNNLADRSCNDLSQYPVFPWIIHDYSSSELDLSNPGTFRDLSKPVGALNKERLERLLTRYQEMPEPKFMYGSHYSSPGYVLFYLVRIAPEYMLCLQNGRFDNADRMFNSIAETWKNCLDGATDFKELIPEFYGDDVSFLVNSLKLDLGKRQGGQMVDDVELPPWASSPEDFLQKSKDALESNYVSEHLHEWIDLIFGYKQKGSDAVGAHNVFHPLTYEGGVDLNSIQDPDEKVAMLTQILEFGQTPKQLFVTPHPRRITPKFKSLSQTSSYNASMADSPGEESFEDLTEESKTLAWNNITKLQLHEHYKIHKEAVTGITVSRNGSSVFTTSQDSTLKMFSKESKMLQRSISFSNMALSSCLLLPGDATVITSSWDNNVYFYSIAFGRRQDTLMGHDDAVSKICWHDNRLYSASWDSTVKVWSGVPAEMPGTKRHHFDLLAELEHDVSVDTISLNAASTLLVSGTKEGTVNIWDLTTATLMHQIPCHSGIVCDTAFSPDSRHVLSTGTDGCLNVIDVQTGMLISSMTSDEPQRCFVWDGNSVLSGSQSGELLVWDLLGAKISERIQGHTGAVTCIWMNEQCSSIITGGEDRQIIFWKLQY
UniProt Q9BTW9: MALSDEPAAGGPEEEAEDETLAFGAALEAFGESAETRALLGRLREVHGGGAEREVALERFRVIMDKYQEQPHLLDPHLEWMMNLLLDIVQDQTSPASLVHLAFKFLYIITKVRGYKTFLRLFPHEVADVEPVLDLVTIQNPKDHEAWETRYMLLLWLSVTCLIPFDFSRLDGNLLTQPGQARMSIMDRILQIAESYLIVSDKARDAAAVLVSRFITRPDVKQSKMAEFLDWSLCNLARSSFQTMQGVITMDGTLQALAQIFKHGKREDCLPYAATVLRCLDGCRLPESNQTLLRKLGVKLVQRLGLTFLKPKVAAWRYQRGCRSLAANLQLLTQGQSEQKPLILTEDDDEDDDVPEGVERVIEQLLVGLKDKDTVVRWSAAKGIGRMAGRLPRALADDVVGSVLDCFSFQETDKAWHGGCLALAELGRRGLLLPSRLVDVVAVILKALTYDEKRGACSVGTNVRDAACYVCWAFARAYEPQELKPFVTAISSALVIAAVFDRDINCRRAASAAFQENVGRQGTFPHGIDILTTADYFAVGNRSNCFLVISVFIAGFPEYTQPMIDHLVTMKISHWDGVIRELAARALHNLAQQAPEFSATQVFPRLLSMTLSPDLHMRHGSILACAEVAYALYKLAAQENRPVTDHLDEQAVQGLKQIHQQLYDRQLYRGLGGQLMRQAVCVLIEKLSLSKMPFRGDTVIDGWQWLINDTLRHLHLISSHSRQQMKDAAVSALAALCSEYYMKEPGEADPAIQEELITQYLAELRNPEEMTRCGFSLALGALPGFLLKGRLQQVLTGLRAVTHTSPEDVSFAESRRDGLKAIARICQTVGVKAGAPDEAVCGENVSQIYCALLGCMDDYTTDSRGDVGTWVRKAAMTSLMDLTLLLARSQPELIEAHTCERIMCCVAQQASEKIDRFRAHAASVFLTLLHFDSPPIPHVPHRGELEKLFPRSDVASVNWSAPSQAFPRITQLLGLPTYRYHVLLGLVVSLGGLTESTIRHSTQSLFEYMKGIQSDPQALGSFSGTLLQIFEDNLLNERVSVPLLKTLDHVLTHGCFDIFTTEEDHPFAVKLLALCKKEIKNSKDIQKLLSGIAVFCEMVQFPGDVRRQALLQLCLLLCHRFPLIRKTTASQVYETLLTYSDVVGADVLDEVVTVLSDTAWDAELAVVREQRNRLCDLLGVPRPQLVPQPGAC
UniProt Q9Y5J7: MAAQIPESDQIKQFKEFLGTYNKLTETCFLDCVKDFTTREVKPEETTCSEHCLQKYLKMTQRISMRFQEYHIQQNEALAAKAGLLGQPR
UniProt Q9NXX6: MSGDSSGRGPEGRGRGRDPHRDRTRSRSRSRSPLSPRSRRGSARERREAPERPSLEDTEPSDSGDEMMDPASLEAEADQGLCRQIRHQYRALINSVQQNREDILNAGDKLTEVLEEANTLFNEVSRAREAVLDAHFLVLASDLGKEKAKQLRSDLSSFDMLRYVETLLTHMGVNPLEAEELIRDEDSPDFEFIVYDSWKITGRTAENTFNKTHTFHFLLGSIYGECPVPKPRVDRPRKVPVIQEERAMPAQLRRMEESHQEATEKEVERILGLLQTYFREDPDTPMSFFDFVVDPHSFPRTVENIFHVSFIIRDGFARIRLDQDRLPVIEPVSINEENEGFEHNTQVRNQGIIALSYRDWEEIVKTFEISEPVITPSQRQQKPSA
UniProt Q16718, whole entry: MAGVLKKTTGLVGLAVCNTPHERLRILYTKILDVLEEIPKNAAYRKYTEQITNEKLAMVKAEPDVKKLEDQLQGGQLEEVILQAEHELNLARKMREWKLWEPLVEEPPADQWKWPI
UniProt O43156, whole entry: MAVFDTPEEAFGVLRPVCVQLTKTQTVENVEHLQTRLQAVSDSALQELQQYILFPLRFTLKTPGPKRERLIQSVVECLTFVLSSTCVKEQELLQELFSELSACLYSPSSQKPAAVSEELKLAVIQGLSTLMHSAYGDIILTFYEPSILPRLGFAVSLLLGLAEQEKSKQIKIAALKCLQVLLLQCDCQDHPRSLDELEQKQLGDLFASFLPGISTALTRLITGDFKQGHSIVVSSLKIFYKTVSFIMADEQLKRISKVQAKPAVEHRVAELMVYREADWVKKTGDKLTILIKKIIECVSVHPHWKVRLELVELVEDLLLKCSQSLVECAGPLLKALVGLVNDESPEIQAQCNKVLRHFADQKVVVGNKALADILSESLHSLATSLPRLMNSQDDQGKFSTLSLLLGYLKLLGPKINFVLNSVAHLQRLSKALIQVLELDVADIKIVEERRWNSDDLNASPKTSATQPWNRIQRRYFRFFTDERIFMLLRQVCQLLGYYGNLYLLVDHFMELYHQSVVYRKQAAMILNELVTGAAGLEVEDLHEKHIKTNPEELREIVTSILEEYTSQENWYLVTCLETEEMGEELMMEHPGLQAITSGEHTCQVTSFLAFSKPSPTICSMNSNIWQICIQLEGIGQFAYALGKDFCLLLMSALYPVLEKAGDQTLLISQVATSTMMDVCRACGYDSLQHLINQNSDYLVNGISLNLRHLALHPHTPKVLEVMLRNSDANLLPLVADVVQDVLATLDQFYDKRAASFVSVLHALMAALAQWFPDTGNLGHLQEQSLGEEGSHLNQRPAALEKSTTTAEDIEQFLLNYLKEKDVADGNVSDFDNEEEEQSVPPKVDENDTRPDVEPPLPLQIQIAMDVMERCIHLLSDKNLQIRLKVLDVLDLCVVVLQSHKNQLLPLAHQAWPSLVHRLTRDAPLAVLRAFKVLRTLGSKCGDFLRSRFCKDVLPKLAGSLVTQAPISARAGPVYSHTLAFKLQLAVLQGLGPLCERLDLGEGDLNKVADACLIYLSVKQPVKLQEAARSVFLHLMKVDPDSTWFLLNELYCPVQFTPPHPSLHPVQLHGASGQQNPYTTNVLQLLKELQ
UniProt P51665: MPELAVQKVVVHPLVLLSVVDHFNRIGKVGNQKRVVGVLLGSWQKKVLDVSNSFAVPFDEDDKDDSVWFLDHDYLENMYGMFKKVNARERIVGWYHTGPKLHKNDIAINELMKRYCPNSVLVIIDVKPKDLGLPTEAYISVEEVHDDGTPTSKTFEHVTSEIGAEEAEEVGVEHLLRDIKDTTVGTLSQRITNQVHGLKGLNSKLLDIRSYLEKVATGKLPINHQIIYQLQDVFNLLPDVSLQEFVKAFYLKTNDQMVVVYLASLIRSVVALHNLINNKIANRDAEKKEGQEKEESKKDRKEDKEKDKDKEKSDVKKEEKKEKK
UniProt Q6P996: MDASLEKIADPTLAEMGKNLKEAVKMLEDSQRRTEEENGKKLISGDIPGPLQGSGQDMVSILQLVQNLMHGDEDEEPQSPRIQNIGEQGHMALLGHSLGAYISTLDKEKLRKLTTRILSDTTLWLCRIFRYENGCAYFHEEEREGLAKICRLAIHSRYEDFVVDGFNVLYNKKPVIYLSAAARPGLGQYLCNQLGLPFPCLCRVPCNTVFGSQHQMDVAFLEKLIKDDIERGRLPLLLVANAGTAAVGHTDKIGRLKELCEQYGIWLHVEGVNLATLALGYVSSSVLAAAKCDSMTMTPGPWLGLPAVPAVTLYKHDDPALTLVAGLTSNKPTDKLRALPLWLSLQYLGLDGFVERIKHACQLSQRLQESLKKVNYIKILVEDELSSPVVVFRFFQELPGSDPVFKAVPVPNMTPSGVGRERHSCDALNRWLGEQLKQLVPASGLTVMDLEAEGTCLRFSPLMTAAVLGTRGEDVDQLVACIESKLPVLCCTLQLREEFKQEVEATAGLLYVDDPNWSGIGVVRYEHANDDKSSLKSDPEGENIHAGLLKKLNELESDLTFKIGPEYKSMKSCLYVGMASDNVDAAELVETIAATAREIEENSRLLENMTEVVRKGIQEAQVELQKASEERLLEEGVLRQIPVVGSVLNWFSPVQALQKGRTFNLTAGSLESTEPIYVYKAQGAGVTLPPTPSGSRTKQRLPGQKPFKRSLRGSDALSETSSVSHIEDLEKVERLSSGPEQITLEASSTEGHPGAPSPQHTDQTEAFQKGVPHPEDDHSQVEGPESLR
UniProt Q5VTL8: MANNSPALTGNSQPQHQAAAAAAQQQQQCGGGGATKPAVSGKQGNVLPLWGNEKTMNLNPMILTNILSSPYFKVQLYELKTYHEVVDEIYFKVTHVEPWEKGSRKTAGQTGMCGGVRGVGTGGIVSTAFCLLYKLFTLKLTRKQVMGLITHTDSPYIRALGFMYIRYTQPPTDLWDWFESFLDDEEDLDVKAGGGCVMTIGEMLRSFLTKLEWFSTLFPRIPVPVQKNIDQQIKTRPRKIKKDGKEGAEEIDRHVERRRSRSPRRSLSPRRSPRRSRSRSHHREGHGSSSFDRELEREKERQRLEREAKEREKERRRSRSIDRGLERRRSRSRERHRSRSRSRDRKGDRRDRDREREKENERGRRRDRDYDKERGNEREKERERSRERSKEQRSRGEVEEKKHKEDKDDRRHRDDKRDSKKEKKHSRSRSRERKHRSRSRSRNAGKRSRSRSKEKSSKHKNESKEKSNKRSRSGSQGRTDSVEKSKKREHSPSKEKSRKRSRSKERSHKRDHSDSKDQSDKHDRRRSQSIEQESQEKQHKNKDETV
UniProt Q9Y6D9: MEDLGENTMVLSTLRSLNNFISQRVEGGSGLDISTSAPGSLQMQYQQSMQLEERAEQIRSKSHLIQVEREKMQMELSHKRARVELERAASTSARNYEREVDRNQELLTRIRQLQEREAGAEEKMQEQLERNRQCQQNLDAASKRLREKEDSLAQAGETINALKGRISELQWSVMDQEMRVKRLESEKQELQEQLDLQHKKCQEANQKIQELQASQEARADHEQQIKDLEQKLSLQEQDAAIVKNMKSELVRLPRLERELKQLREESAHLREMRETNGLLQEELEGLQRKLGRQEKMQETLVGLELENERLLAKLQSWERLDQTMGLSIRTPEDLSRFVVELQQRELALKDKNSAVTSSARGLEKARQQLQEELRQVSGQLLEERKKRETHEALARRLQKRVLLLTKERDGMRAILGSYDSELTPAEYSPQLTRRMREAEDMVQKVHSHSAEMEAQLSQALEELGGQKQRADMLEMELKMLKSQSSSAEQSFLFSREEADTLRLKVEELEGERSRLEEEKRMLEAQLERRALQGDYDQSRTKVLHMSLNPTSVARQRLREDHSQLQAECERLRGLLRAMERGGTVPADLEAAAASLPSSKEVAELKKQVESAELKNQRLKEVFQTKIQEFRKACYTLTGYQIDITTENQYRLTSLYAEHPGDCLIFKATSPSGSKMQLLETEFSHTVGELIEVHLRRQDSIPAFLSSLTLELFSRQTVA
UniProt P14854, whole entry: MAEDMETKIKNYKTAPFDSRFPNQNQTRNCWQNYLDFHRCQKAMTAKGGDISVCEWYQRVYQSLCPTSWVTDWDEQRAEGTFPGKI

Compound: [O-][N+](C(C1=C(C(O)=C2)NC(C(C=C3)=CC=C3Cl)C4C1C=CC4)=C2Cl)=O
Assay: melting temperature shift (compound 7 minus DMSO); higher = compound stabilises the protein
Conditions: 10 µM
Protocol: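 Thermal proteome profiling (TMT mass spectrometry) in intact DAOY medulloblastoma cells or DAOY lysates treated with 10 µM compound 7 or DMSO, heated at 10 temperatures from 40.5 to 73.8 °C for 3 min. Melting curves were fitted with the Bioconductor TPP package, and the melting point difference between compound and vehicle is reported per protein (single curve per condition).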

[1] = system: DAOY cell lysate, treatment time: 20 min, 4 °C
[2] = system: intact DAOY cells, treatment time: 90 min, 37 °C

Target	melting temperature shift [1] [°C]	melting temperature shift [2] [°C]
LRR1 (UniProt Q96L50)	-0.591	
EEF1G (UniProt P26641)	-0.112	0.0135
VPS72 (UniProt Q15906)	-0.271	2.27
UniProt Q99638	-0.415	
EBNA1BP2 (UniProt Q99848)	0.715	
RUVBL1 (UniProt Q9Y265)	-0.858	-0.678
ASL (UniProt P04424)	-0.451	-0.609
UniProt Q8N680	3.12	
HNRNPH3 (UniProt P31942)	-0.226	-0.413
ZWINT (UniProt O95229)	-0.436	-0.918
UniProt Q8TE73		-1.48
UniProt O60308		-2.18
KNTC1 (UniProt P50748)	-0.957	-0.441
CASP6 (UniProt P55212)	-0.61	-0.14
UniProt Q99877		-0.465
COPS6 (UniProt Q7L5N1)	-0.438	-0.507
NSMAF (UniProt Q92636)	0.0856	
UniProt Q13733		-0.207
MEMO1 (UniProt Q9Y316)	-0.0142	-0.614
LIN7C (UniProt Q9NUP9)	1.2	-0.0798
LRRC16A (UniProt Q5VZK9)	-0.498	0.945
SOGA1 (UniProt O94964)		-3.17
UniProt Q8IVS2	1.21	1.44

Target	melting temperature shift [1] [°C]	melting temperature shift [2] [°C]
ATP5D (UniProt P30049)	2.46	-3.09
HGH1 (UniProt Q9BTY7)	0.708	-2.18
SLC39A10 (UniProt Q9ULF5)	1.21	
UTP14A (UniProt Q9BVJ6)	0.475	-0.665
ATR (UniProt Q13535)	-1.57	-2.01
STRAP (UniProt Q9Y3F4)	-0.316	0.149
UniProt Q9NWA0	-5.9	
PLEKHA2 (UniProt Q9HB19)	-0.542	
HSPD1 (UniProt P10809)	0.707	-0.47
KIF15 (UniProt Q9NS87)	-1.6	-0.0155
TTC38 (UniProt Q5R3I4)	-0.445	
UniProt Q6ZSR9	-0.14	-0.179
UniProt Q5JU69		-0.636
TBC1D10A (UniProt Q9BXI6)	-0.695	-1.77
ZC3HC1 (UniProt Q86WB0)	-0.719	-1.08
UniProt Q6N063	0.299	
UniProt Q9NX08	-0.317	-0.483
TBCD (UniProt Q9BTW9)	0.313	-0.68
UniProt P54840		-0.188
TUBB3 (UniProt Q13509)	0.259	0.0751
UniProt Q9Y5J7	1.3	-0.166
FYN (UniProt P06241)		2.15
CSPG4 (UniProt Q6UVK1)	-0.94	3.47

Target	melting temperature shift [1] [°C]	melting temperature shift [2] [°C]
ZADH2 (UniProt Q8N4Q0)		-1.26
NSMCE4A (UniProt Q9NXX6)	2.66	-0.913
DIAPH3 (UniProt Q9NSV4)	-2.3	
HEBP2 (UniProt Q9Y5Z4)	-1.27	0.336
PHF23 (UniProt Q9BUL5)	2.14	0.229
NDUFA5 (UniProt Q16718)	1.21	0.686
MTMR6 (UniProt Q9Y217)	-0.243	-0.315
MARCH5 (UniProt Q9NX47)	-1.03	1.62
UniProt Q4G0X4	-1.59	
STAU1 (UniProt O95793)	0.628	-0.125
TTI1 (UniProt O43156)	-1.74	-0.25
KIF20A (UniProt O95235)	-0.344	3.1
CLMP (UniProt Q9H6B4)		2.53
MED1 (UniProt Q15648)	-0.672	2.13
DPP3 (UniProt Q9NY33)	-0.524	-0.356
FAM136A (UniProt Q96C01)	0.811	
SCRN3 (UniProt Q0VDG4)	1.45	1.51
UniProt Q13043	0.227	-0.34
CBL (UniProt P22681)	-1.21	0.126
UniProt O60282	-1.15	2.24
TRIP6 (UniProt Q15654)	1.46	0.447
CBR1 (UniProt P16152)	-0.000388	-0.724
IST1 (UniProt P53990)	-0.226	-0.678

Target	melting temperature shift [1] [°C]	melting temperature shift [2] [°C]
NFIC (UniProt P08651)	1.01	2.55
STX6 (UniProt O43752)	-0.964	0.971
CENPF (UniProt P49454)	-1.27	0.408
NR2C2AP (UniProt Q86WQ0)	0.355	
PPP1R10 (UniProt Q96QC0)	-0.276	-1.01
PHF3 (UniProt Q92576)	0.988	0.507
GLUL (UniProt P15104)	-2.12	7.22
UniProt Q99504	-0.597	-1.22
SPECC1L (UniProt Q69YQ0)	0.603	0.979
USP16 (UniProt Q9Y5T5)	-1.24	0.179
RSPRY1 (UniProt Q96DX4)	-1.89	
PSMD7 (UniProt P51665)	-1.24	-1.54
GCN1 (UniProt Q92616)	-1.07	-0.0159
A0A0B4J1V1, A0A0B4J1V1	-1.17	-1.62
PRMT1 (UniProt Q99873)	-0.276	-0.443
SDF4 (UniProt Q9BRK5)	1.14	1.89
UniProt Q6PL24	0.16	0.0139
UniProt Q6BEB4		1.33
FDPS (UniProt P14324)	-1.1	0.404
PDXDC1 (UniProt Q6P996)	-0.588	-0.286
CPOX (UniProt P36551)	3.03	2.69
PRPF38B (UniProt Q5VTL8)	0.57	0.0255
RPL34 (UniProt P49207)	1.29	-0.5

Part of the list above in another layout:
Target | melting temperature shift [1] [°C] | melting temperature shift [2] [°C]
EEF1G (UniProt P26641) | -0.112 | 0.0135
VPS72 (UniProt Q15906) | -0.271 | 2.27
UniProt Q99638 | -0.415 | 
EBNA1BP2 (UniProt Q99848) | 0.715 | 
RUVBL1 (UniProt Q9Y265) | -0.858 | -0.678
ASL (UniProt P04424) | -0.451 | -0.609
UniProt Q8N680 | 3.12 | 
HNRNPH3 (UniProt P31942) | -0.226 | -0.413
ZWINT (UniProt O95229) | -0.436 | -0.918
UniProt Q8TE73 |  | -1.48
UniProt O60308 |  | -2.18
KNTC1 (UniProt P50748) | -0.957 | -0.441
CASP6 (UniProt P55212) | -0.61 | -0.14
UniProt Q99877 |  | -0.465
COPS6 (UniProt Q7L5N1) | -0.438 | -0.507
NSMAF (UniProt Q92636) | 0.0856 | 
UniProt Q13733 |  | -0.207
MEMO1 (UniProt Q9Y316) | -0.0142 | -0.614
LIN7C (UniProt Q9NUP9) | 1.2 | -0.0798
LRRC16A (UniProt Q5VZK9) | -0.498 | 0.945
SOGA1 (UniProt O94964) |  | -3.17
UniProt Q8IVS2 | 1.21 | 1.44
ATP5D (UniProt P30049) | 2.46 | -3.09
HGH1 (UniProt Q9BTY7) | 0.708 | -2.18
SLC39A10 (UniProt Q9ULF5) | 1.21 | 

Remaining list, next part:

Target	melting temperature shift [1] [°C]	melting temperature shift [2] [°C]
UniProt Q8N4F7		-0.598
RPS3 (UniProt P23396)	-1.2	-0.831
IDH2 (UniProt P48735)	-0.555	-1.81
MAD1L1 (UniProt Q9Y6D9)	-1.06	0.0257
UniProt Q96GJ1	-1.18	
KCTD10 (UniProt Q9H3F6)	1.5	-0.398
AGFG2 (UniProt O95081)	-0.384	
RUFY2 (UniProt Q8WXA3)	-1.24	1.57
LCLAT1 (UniProt Q6UWP7)	1.12	-1.09
TAOK1 (UniProt Q7L7X3)	0.0231	-0.3
COX6B1 (UniProt P14854)	0.00361	-1.46
CAPN7 (UniProt Q9Y6W3)	-1.13	1.13
UniProt O60733		-0.544
RBPJ (UniProt Q06330)	2.7	0.168
C7ORF50 (UniProt Q9BRJ6)	0.226	1.42
PDCD11 (UniProt Q14690)	0.7	
GTF2F1 (UniProt P35269)	-1.06	-0.865
PATL1 (UniProt Q86TB9)	-0.633	-0.794
ARPC5 (UniProt O15511)	-1.03	0.147
SEC24D (UniProt O94855)	-0.579	-0.235

Single values are uncertain, as repeats are few or missing.
